Source: PubChem BioAssay AID504834 (National Center for Advancing Translational Sciences (NCATS), 2011)
Among all 320,000 compounds or so, about 22,000 (6.9%) were called active. Inconclusive means that the source gave no clear call. Such entries were picked first, then a sample of the others. Calls follow the shape of the dose curve; as a rule, active = well fitted inhibition curve with a large enough effect; inconclusive = small, poorly fitted or top-dose-only effect, or another doubt; inactive = no such curve, though single readings can be large or run the other way. Where the call is inconclusive, the potency comes from a doubtful curve fit.

assay: Primary qHTS for delayed death inhibitors of the malarial parasite plastid, 96 hour incubation; conditions: P. falciparum luciferase reporter growth; series mostly up to 28.7 µM
Procedure, shortened: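 Luminescence readout: decreased luciferase signal marks inhibited growth of reporter-expressing P. falciparum in infected red cells (2% hematocrit, 0.05% parasitemia final), exposed to compound two generations (96 h, 37 C, 5% CO2).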
Potency is read from the fitted curve at half-maximal effect.

SMILES | Potency
O=C(NCCN1CCOCC1)C(=O)NCC1OCCN1S(=O)(=O)c1ccc(Br)cc1 (centres undefined) | inactive
O=C(NCCc1ccccc1)C(c1ccncc1)N(C(=O)c1csnn1)C1CC1 (centres undefined) | active: 11.7 µM
COC(=O)c1cc(NC(=O)Nc2cccc(Cl)c2)ccc1Cl | active: 14.7 µM
O=C(NCCCCNC(=O)C1CCCC1)C1CCCC1 | inactive
CCC(CC)NC(=O)COC(=O)c1ccc(OCc2ccc(C(C)=O)cc2OC)c(OC)c1 | inconclusive: 11.7 µM [inhibitor, single point]
CC(C)NC(=S)NN=C1CCC(c2ccccc2)CC1 (centres undefined) | inconclusive: 11.7 µM [inhibitor, single point]
COc1ccc(NC(=O)Cc2ccccc2)cn1 | active: 5.22 µM
CCOC(=O)C(CCCCCOc1ccccc1[N+](=O)[O-])C(=O)OCC | inconclusive: 18.5 µM [inhibitor, single point]
CSc1ccc(S(=O)(=O)Nc2c(C)n(C)n(-c3ccccc3)c2=O)cc1 | inactive
Cc1ccc(-c2cn3cccnc3n2)cc1NC(=O)c1ccc(Br)o1 | inconclusive: 18.5 µM [inhibitor, single point]
COc1ccc(C(CC(=O)O)NC(C)=O)cc1OC (centres undefined) | inconclusive: 11.7 µM [inhibitor, single point]
Cc1ccc(S(=O)(=O)NCc2ccc(C(=O)NC3CCC(C)CC3)cc2)cc1 (centres undefined) | inconclusive: 18.5 µM [inhibitor, single point]
COC(=O)COc1ccc(S(=O)(=O)N2CCN(c3ccc(OC)cc3)CC2)cc1 | inconclusive: 0.828 µM [inhibitor, partial curve, poor fit]
CCC(=O)Nc1cccc(-c2nc3ncccc3o2)c1C | inconclusive: 11.7 µM [inhibitor, single point]
O=C(NCc1ccc2c(c1)OCO2)C(=O)NCC1OCCCN1S(=O)(=O)c1ccc(F)cc1 (centres undefined) | inconclusive: 11.7 µM [inhibitor, partial curve, poor fit]
COc1ccc(C2CC(c3cccs3)=NN2C(=O)CSc2nc3ccccc3s2)cc1 (centres undefined) | inconclusive: 11.7 µM [inhibitor, single point]
CCOc1ccc(/C=C/C(=O)CCC(=O)O)cc1 | inactive
CC(C)(C)C(=O)Nc1cccc(-c2ncon2)c1 | inactive
CCOC(=O)c1c(C)[nH]c(C)c1C(=O)CSc1nnc(-c2cc(OC)c(OC)c(OC)c2)o1 | inconclusive: 18.5 µM [inhibitor, single point]
Cc1ccc(N(CC(=O)NCCc2ccc(F)cc2)S(=O)(=O)c2ccc(Cl)c([N+](=O)[O-])c2)c(C)c1 | inconclusive: 10.4 µM [inhibitor, single point]
CCc1cccc(C)c1NC(=O)CSc1nnc(Cc2csc(C)n2)o1 | inconclusive: 13.1 µM [inhibitor, single point]
C=CCN1C(=O)/C(=C2/Sc3ccc(OC)cc3N2CC)SC1=S | inconclusive: 11.7 µM [inhibitor, partial curve, poor fit]

SMILES | Potency
COc1cccc(NC(=O)CSc2nc(C3CC3)nc3ccccc23)c1 | inconclusive: 1.65 µM [inhibitor, partial curve, poor fit]
COc1ccc(CN2C(=O)c3cccnc3C2Nc2cc(Cl)ccc2OC)cc1 (centres undefined) | inconclusive: 14.7 µM [inhibitor, single point]
CC(C)(C)C(=O)Nc1ccc(S(=O)(=O)Nc2nccs2)cc1 | inactive
CC(=O)c1ccc(N2CCN(C(=O)/C=C/c3ccc(S(=O)(=O)N4CCOCC4)cc3)CC2)cc1 | inconclusive: 14.7 µM [inhibitor, single point]
C=CCc1ccc(OCC(O)CN2CCC(Cc3ccccc3)CC2)c(OC)c1 (centres undefined) | inconclusive: 18.5 µM [inhibitor, single point]
CC(NC(=O)NNC(=O)c1ccncc1)(C(F)(F)F)C(F)(F)F | inconclusive: 13.1 µM [inhibitor, single point]
O=C(CSc1nc(O)c(Cc2ccccc2)c(=O)[nH]1)N1CCOCC1 | inactive
Cc1nn(CCOc2ccccc2Cl)c(C)c1[N+](=O)[O-] | inconclusive: 18.5 µM [inhibitor, single point]
O=C1NC(=O)C(c2ccccc2[N+](=O)[O-])=C1Nc1ccc(O)c(Cl)c1 | inconclusive: 14.7 µM [inhibitor, single point]
O=C(Nc1ccccc1)c1ccc(F)c(S(=O)(=O)N2CCOCC2)c1 | inconclusive: 9.28 µM [inhibitor, partial curve]
CC(C)CNS(=O)(=O)c1ccc(OCC(=O)Nc2ccc(F)cc2F)cc1 | inconclusive: 11.7 µM [inhibitor, single point]
CC(OC(=O)c1cc(S(=O)(=O)N2CCOCC2)ccc1F)C(=O)NCc1ccc2c(c1)OCO2 (centres undefined) | inactive
CCOC(=O)c1cnn2c1[nH]c(=O)c1ccccc12 | active: 9.28 µM
COc1ccc(OC)c(-c2cc(C(=O)NCCCn3ccnc3)no2)c1 | inconclusive: 18.5 µM [inhibitor, single point]
CCn1c(SCC(=O)Nc2cccc(F)c2)nc2c(c1=O)SC(C)C2 (centres undefined) | active: 2.62 µM
O=C(CSc1nc2ncccc2[nH]1)c1cccc([N+](=O)[O-])c1 | inconclusive: 18.5 µM [inhibitor, single point]
O=C(CSc1ccc2nc(-c3ccccc3)cn2n1)NCC1CCCO1 (centres undefined) | active: 5.22 µM
COCCNC(=O)C(c1ccccc1)N(CCOC)C(=O)Cn1nnc2ccccc21 (centres undefined) | inconclusive: 18.5 µM [inhibitor, single point]
COc1ccc2cc(S(=O)(=O)N3CCCC3)ccc2c1 | active: 6.57 µM
O=C(CNC(=O)c1cccs1)c1ccc(Cl)cc1 | inconclusive: 8.28 µM [inhibitor, partial curve]
COc1cccc(-c2ncc3ccccc3c2COC(=O)c2cccs2)c1 | inconclusive: 13.1 µM [inhibitor, single point]
O=C(c1cc(C2CC2)on1)N1CCCC(N2CCN(c3ccc(F)cc3)CC2)C1 (centres undefined) | inactive

Among those listed so far, 8 contain fluorine.
SMILES | Potency
O=C(NCc1ccc2c(c1)OCO2)C(=O)NCC1OCCCN1S(=O)(=O)c1ccc(F)cc1 (centres undefined) | inconclusive: 11.7 µM [inhibitor, partial curve, poor fit]
Cc1ccc(N(CC(=O)NCCc2ccc(F)cc2)S(=O)(=O)c2ccc(Cl)c([N+](=O)[O-])c2)c(C)c1 | inconclusive: 10.4 µM [inhibitor, single point]
CC(NC(=O)NNC(=O)c1ccncc1)(C(F)(F)F)C(F)(F)F | inconclusive: 13.1 µM [inhibitor, single point]
O=C(Nc1ccccc1)c1ccc(F)c(S(=O)(=O)N2CCOCC2)c1 | inconclusive: 9.28 µM [inhibitor, partial curve]
CC(C)CNS(=O)(=O)c1ccc(OCC(=O)Nc2ccc(F)cc2F)cc1 | inconclusive: 11.7 µM [inhibitor, single point]
CC(OC(=O)c1cc(S(=O)(=O)N2CCOCC2)ccc1F)C(=O)NCc1ccc2c(c1)OCO2 (centres undefined) | inactive
CCn1c(SCC(=O)Nc2cccc(F)c2)nc2c(c1=O)SC(C)C2 (centres undefined) | active: 2.62 µM
O=C(c1cc(C2CC2)on1)N1CCCC(N2CCN(c3ccc(F)cc3)CC2)C1 (centres undefined) | inactive
